From patent US5279956A, “Activated protein C polypeptides and anti-peptide antibodies, diagnostic methods and systems for inhibiting activated protein C” (The Scripps Research Institute, priority 1991, dated 1994)
At least one peptide structure holds a part that was inferred or is arguable (an end, a ring closure or a residue). No end group written: not given here.

Protein sequences, listed by entry. Tags and fused reporters are not part of them. Residues count along the entry.
UniProt P04070, 43-197: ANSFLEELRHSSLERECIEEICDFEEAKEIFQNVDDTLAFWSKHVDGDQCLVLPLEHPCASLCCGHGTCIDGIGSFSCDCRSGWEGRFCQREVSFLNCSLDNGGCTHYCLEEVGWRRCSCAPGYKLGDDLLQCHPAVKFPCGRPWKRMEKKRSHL
UniProt P04070, 212-461: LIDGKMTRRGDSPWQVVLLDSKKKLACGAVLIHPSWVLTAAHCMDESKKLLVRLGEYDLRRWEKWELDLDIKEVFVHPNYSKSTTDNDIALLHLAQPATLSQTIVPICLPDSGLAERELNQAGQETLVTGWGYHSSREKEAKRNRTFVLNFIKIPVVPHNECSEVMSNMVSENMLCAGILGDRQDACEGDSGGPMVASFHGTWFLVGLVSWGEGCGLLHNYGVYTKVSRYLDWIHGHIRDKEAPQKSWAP

Key:
[1] = tested on: anti-(390-404) antibody; assay: Cross-competition ELISA: anti-(390-404) antibody binding to immobilized PC with fluid-phase competitors; parameters: species or system rabbit; settings: fluid-phase competitor
Method: FIG. 1 illustrates anti-(390-404) antibody binding to immobilized Protein C (PC) in the presence of fluid-phase PC, peptide-(390-404), -(404-390) and -K395A-(390-404). […] Before admixing 2 μg/ml anti-(390-404) antibody to PC-coated wells, the anti-(390-404) antibody was admixed with 0 to 200 μg/ml of either PC, 0 to 1000 μM peptide (-390-404), 0 to 1000 μM peptide-(404-390), or 0-200 μM peptide-K395A-(390-404) for 30 minutes at 37° C. Following biotinylated-goat-anti-rabbit-IgG and streptavidin-alkaline-phosphatase immunoreactions as described in Example 2c, bound anti-(390-404) antibody was detected by addition of 5 milligrams/milliliter (mg/ml) p-nitrophenylphosphate in 0.1M diethanolamine at pH 9.6 followed by measuring of the change in absorbance at 405 nm over time. The amount of anti-(390-404) specifically bound to PC coated wells in the absence of any competing protein was defined as 100%. […]
The specificity of anti-(390-404) antibody for peptide-(390-404) and PC was confirmed by cross-competition binding experiments. […] Bound anti-(390-404) antibody to immobilized PC in the presence of competitors was detected as described in Example 2c.

[2] = target: T1, APC (Homo sapiens, UniProt P04070); assay: Activated partial thromboplastin time (APTT) coagulation assay of APC anticoagulant activity; format: biochemical; settings: protein S depleted plasma, 5 nM APC
T1 construct: begins at amino acid residue position 158 and ends at 419; The light chain is 155 amino acid residues in length; tissue Factor IX concentrate from Immuno AG, Vienna; thrombin from Enzyme Research Laboratories
Method: The effect of the synthetic peptides on APC anticoagulant activity were determined using the APTT assay in the presence of either normal citrate anticoagulated plasma (NHP) or protein S depleted plasma (PSDP). The assays were performed essentially as described. See Marlar et al., Blood, 59:1067-1072 […]; Suzuki et al., J. Biol. Chem., 258:163-168 (1983); Gruber et al., Blood, 73:639-642 (1989); Ohlin et al., Biochem., 29:644-651 (1990). NHP was purchased from George King Bio-Medical, Inc. (Overland Park, Kans.). PSDP was prepared from a normal human citrate-anticoagulated plasma pool from ten healthy donors. […] Residual total protein S content in the resultant PSDP was less than 0.1% protein S as determined by quantitative immunoblotting, by solid-phase ELISA for total protein S and by electroimmunoassay.
For the APTT assay, APC was prepared as described in Example 2c2). The specific anticoagulant activity of APC was determined to be 250 Units/mg. […]
Once the optimal concentration of APC was determined, peptides from Table 2 were then separately admixed for a final concentration of 500 μM with 10 nM APC in 100 μl of TBS-BSA at pH 7.4 to form peptide-APC admixtures. […] The time for clot formation was measured by an Electra 700 Automatic Coagulation Timer (Medical Laboratory Automation, Inc., Mount Vernon, N.Y.). Each peptide's effect was determined in duplicate. […]

In the case of “YGVYTKVSRYLDWIH-NH2 [peptide-(390-404), YGVYTKVSRYLDWIH]”, the “competition with binding of anti-(390-404) antibody to immobilized PC” value [1] is reported as “competed significantly”, the IC50 ([1]; 2 μg/ml antibody, 10 μg/ml PC coated, read-out: Half-maximal inhibition of anti-(390-404) antibody binding to immobilized PC) is reported as ~4.4 µM and the “dose-response of APC inhibition in APTT with PSDP instead of NHP” value [2] is reported as “same dose-response curve”.
